# Laboratory results reported in article PMC11558822, “Myc 9aaTAD activation domain binds to mediator of transcription with superior high affinity” (Molecular Medicine, 2024).
# Chains of the proteins cited; added tags and fusions are not shown. Lines headed by an entry give the natural chain unless they say otherwise; changes in a name come on top. A line that says so, or that is headed by a name, gives the form on record, which may keep a tag or linker.
# KIX domain of CBP coactivator (region 586-672) (P45481, form named): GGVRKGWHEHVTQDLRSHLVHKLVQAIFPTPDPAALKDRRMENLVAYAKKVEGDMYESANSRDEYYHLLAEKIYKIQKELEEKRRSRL
# These are yes or no findings as the source states them, for the method shown.
# Molecular target: T1, native Sp1 9aaTAD peptide (Biotin-GSS-…)
# T1 sequence (peptide, Biotin on the N-terminus): GSSGQVSWQTLQLQNLQ
# Assay: BLI; biotinylated Sp1 or Sp1-Ac peptide immobilised, KIX in solution in the 3-16 uM range; steady-state analysis, 1:1 model; apparent KD; both purified
substance,measurement,value
KIX domain of CBP coactivator (region 586-672) (from UniProt P45481 586-672) (domain or fragment),binding,no binding (tested: 3–16 μM)
